Earlier results, collected in patent US9050328B2 (Jiangsu Hansoh Pharmaceutical Group Co., Ltd., priority 2010, dated 2015).
Counter-ions that a name gives are not always drawn. The name of at least one read-out is uncertain.

Details: cited from earlier work

Structure (SMILES)	bioavailability compared with free base form (higher gastric pH conditions)	bioavailability compared with hydrochloride acid addition salt form (administrated together with PPI or H2 receptor antagonists (higher pH conditions))
CC(=O)Oc1cc2c(s1)CCN(C(C(=O)C1CC1)c1ccccc1F)C2 (centres unmarked) [Prasugrel hydrochloride, prasugrel hydrochloride]	higher bioavailability than its free base form	–
CC(=O)Oc1cc2c(s1)CCN(C(C(=O)C1CC1)c1ccccc1F)C2 (centres unmarked) [prasugrel, 5-(2-cyclopropyl-1-(2-fluorophenyl)-2-oxoethyl)-4,5,6,7-tetrahydrothieno[3,2-c]pyridin-2-yl acetate]	–	lower than the hydrochloride acid addition salt form
